Source: PubChem BioAssay AID1487 (National Center for Advancing Translational Sciences (NCATS), 2009)
The other results are listed elsewhere or left out. Further columns of the screen follow, without active or inactive calls. Compounds called inactive in the main read-out are mostly missing here. The note in brackets gives the kind of curve behind each potency; many fits are weak.

Assay: qHTS Assay for Modulators of Lamin A Splicing
Settings: HeLa LMNA splicing GFP/RFP minigene ratio, 48 h
How it was run: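 S3 HeLa cells stably expressing lamin A-EGFP splicing minigene plus DsRed2, 600 cells/well, 48 h compound exposure at 37C. Laser-scanning cytometry; analysed as GFP (500-530 nm)/RFP (575-640 nm) total intensity ratio; 0.5% DMSO vehicle.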

[1] = measured here: RFP viability control channel
[2] = measured here: GFP splicing reporter channel

Compound | AC50 [1] | AC50 [2]
CCCC(=O)N(c1ccc2oc(=O)sc2c1)S(=O)(=O)c1ccccc1 | 15.8 µM [rising, single point] | –
COc1ccc2c(c1)Sc1ccccc1N2 | 31.6 µM [rising, single point] | –
CN(C(=S)NC(=O)Cc1ccccc1)c1ccccc1 | 1.58 µM [falling, full curve, poor fit] | –
COc1cc(C(=O)N2CCN(c3ncnc4sc(C)c(C)c34)CC2)cc(OC)c1OC | 2.82 µM [rising, full curve] | 1.78 µM [rising, partial curve, poor fit]
c1cncc(-c2nc(-c3ccco3)cs2)c1 | 0.0282 µM [falling, full curve, poor fit] | –
CCOC(=O)N1CCN(Cc2nc3cc(NC(=O)c4cccc(C)c4)ccc3n2C(C)C)CC1 | 2.51 µM [rising, partial curve] | –
CCn1nc(C)c2c(-c3ccccc3)cc(=O)n(C(C)C(=O)NCc3ccccc3OC)c21 (stereo not drawn) | 11.2 µM [rising, single point] | –
COCC1CCN(Cc2cn(C)nc2-c2cccc(Cl)c2)C1 (stereo not drawn) | 0.00355 µM [falling, full curve, poor fit] | –
O=C(/C=C/c1ccccc1)N1CCN(c2c(Cl)cccc2[N+](=O)[O-])CC1 | 31.6 µM [rising, single point] | 35.5 µM [rising, single point]
CC(=O)N1CCN(S(=O)(=O)c2cccc(C(=O)OCC(=O)N3CC(=O)Nc4ccccc43)c2)CC1 | – | 0.0178 µM [falling, full curve]
CCc1ccccc1NC(=O)CCCN1C(=O)CCn2nc(-c3cn(C)c4ccccc34)cc21 | – | 22.4 µM [falling, partial curve, poor fit]
COc1cc(Nc2nc(SCc3ccccc3Cl)nc3ccccc23)cc(OC)c1 | 12.6 µM [rising, single point] | –
Cc1ccc(-c2noc(CCCC(=O)Nc3cccnc3)n2)cc1 | 12.6 µM [rising, partial curve] | –
COCCNC(=O)c1ccc(CN2CCc3ccccc3C2)cc1 | – | 12.6 µM [rising, partial curve]
O=C(O[C@@H]1OC2COC(=O)c3cc(O)c(O)c(O)c3-c3c(cc(O)c(O)c3O)C(=O)O[C@@H]([C@H]1O)[C@@H]2O)c1cc(O)c(O)c(O)c1 | 5.62 µM [rising, single point] | –
CCOc1ccc(CCNC(=O)c2ccc(CNS(=O)(=O)c3ccccc3)cc2)cc1OCC | 10 µM [rising, partial curve] | –

Shown as comma-separated lines: entries from further up.
Compound,AC50 [1],AC50 [2]
CCc1ccccc1NC(=O)CCCN1C(=O)CCn2nc(-c3cn(C)c4ccccc34)cc21,–,"22.4 µM [falling, partial curve, poor fit]"
COc1cc(Nc2nc(SCc3ccccc3Cl)nc3ccccc23)cc(OC)c1,"12.6 µM [rising, single point]",–
